Test results as given in US20250353909A1 (IMCHECK THERAPEUTICS, published 2025).
Results are given in words; binding and its absence hold for the method and conditions named. Some binding calls cover weakened binding; strength is not graded here.

By UniProt entry, the sequences of proteins in these tests, tags left out. Where a name states a change or a piece, a line headed by the entry shows the natural chain unless it says otherwise. Residues count along the entry.
UniProt O00481, residues 30-513: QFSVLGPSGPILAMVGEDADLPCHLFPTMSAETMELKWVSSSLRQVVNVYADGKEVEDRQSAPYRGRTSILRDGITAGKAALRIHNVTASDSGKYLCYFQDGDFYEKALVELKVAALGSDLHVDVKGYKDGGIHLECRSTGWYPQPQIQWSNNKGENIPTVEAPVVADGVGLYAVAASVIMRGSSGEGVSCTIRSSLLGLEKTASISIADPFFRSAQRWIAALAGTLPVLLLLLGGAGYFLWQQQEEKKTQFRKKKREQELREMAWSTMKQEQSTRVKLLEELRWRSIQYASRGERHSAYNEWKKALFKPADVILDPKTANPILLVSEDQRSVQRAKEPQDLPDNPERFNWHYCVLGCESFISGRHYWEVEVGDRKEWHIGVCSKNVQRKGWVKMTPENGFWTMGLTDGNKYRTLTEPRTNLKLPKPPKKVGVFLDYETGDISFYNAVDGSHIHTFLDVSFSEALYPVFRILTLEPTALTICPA

Columns and labels:
[1] = molecular target: human BTN3A, endogenous on human cells (PBMCs; Daudi cells) (human) (UniProt O00481); assay: flow cytometry on PBMCs
[2] = molecular target: BTN3A1 antigen (Sino Biological cat. no. 15973-H08H) (human) (UniProt O00481); assay: SPR Biacore T200, multi-cycle kinetics
[3] = molecular target: human BTN3A, endogenous on human cells (PBMCs; Daudi cells) (human) (UniProt O00481); assay: flow cytometry on human PBMCs
[4] = molecular target: BTN3A1 antigen (Sino Biological cat. no. 15973-H08H) (human) (UniProt O00481); assay: SPR Biacore

Measured: binding

B1: 103.2 humanized variant VH4/Vκ4 (antibody, V domains shown)
VH: QVQMQQSGAEVKKPGASVKVSCKASGYAFTSYLIHWIKQRPGQGLEWIGVINPRSGDSHYNEKFKDRVTMTADQSISTAYMELSRLRSDDTAVYYCARSDYGAYWGQGTLVTVSS
VL: EIVLTQSPATLSVSPGERATLSCRASQSISNNLHWYQQKPGQAPRLLIKYASQSAFGIPARFSGSGSGTEFTLTISSLQSEDFAVYFCQQSNSWPHTFGQGTKLEIK
notes: also called H4K4; 103.2 VH4/V κ 4
binds: all assays above
